Laboratory results published in paper PMC9164575.
Results are given in words; binding and its absence hold for the method and conditions named. Binding seen in cells or lysates may run through a third protein. Some binding calls cover weakened binding; strength is not graded here.

Amino acid sequences for entries named in this document (tags omitted).
UniProt P14618: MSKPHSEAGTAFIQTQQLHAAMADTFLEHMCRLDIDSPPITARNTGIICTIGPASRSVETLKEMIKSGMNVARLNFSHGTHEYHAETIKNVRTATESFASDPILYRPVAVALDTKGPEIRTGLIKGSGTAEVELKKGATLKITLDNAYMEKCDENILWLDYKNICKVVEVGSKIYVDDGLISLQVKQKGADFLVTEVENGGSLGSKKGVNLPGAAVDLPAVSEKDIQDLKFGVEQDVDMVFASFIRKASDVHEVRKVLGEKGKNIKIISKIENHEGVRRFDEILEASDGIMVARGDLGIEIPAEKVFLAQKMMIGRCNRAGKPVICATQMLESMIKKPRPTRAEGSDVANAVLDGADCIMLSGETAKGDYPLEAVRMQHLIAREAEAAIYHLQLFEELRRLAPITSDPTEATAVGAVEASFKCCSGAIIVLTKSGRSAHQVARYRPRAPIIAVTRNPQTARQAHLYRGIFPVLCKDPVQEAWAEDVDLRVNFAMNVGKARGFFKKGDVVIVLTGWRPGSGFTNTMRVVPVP

How the values were obtained:
[1] = target: T1, GARS, endogenous in bladder cancer tumor tissue (human (endogenous in bladder cancer tumor tissue)) (UniProt P41250); experiment: co-IP; bladder cancer tumor tissues; which protein was precipitated is not given
T1 sequence: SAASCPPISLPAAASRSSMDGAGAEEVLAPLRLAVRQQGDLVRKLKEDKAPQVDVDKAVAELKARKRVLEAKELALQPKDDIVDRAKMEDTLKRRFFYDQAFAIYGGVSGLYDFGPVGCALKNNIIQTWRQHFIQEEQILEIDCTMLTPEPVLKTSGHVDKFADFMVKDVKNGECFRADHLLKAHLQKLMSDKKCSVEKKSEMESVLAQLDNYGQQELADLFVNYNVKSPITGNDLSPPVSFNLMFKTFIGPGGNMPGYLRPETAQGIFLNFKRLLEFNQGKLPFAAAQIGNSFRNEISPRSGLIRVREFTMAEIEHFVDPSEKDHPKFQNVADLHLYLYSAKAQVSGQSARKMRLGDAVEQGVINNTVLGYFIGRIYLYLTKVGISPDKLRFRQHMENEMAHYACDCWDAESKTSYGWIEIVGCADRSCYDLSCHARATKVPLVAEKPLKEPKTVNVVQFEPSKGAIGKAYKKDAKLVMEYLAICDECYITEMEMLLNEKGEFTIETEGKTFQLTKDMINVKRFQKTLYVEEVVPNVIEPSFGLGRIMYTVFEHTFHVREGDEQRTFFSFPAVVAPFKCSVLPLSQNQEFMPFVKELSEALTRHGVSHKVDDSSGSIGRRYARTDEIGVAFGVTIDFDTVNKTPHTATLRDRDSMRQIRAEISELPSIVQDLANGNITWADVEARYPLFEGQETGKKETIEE

[2] = target: T2, GARS, exogenously expressed (UniProt P41250); experiment: co-IP; exogenously expressed proteins in 5637 and T24 cell lines; which protein was precipitated is not given
T2 sequence: T1 sequence

binding [1] | binding [2] | Substance
binds | – | PKM2, endogenous in bladder cancer tumor tissue (from UniProt P14618 1-531) (enzyme)
– | binds | PKM2, exogenously expressed (from UniProt P14618 1-531) (enzyme)
